{"sequences": {"note": "Sequences of proteins named here, by UniProt entry; tags and fusion partners are left off.", "UniProt O15392": "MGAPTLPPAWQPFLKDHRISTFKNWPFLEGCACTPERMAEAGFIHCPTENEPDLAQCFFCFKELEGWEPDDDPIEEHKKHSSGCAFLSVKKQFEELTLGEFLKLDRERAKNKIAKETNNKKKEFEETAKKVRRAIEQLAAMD", "UniProt P35222": "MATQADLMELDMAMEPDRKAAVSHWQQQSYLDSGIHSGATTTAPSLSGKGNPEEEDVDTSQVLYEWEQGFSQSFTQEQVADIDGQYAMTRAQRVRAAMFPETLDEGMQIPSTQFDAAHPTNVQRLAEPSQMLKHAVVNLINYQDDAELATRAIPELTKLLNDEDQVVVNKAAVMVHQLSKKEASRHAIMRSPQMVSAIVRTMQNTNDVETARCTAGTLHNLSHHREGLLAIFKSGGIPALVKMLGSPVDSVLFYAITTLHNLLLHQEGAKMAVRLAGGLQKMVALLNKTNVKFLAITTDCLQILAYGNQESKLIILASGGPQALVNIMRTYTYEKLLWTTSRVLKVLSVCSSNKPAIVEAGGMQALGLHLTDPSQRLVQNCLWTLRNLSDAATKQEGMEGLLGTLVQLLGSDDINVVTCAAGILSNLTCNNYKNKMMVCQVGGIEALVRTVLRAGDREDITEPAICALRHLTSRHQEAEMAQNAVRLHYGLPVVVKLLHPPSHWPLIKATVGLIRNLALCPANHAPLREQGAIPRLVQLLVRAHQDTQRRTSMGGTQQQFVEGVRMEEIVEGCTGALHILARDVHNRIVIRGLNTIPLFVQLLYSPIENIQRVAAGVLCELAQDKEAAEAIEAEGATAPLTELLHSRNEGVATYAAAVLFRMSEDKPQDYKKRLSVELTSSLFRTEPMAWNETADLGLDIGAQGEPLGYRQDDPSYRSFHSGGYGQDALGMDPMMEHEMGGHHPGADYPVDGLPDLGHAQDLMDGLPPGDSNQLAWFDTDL"}, "source": "paper PMC5128714", "biological_target": "Survivin (human (endogenous in human ES cells)) (UniProt O15392)", "test": "co-IP; immunoprecipitation with Survivin in human ES cells; β-catenin found in the precipitate; no method section for the co-IP itself", "note": "No constants are given. Whether binding was seen depends on the method and setting. Binding seen in cells or lysates may run through a third protein. Some binding calls cover weakened binding; strength is not graded here."}
{"substance": "β-catenin (from UniProt P35222 1-781)", "values": [{"measurement": "binding", "result": "binds"}]}
